Laboratory results: patent US20160264960A1
No constants are given. Whether binding was seen depends on the method and setting. Some results given as binding are weak or reduced against the parent protein; the word gives no strength.

By UniProt entry, the sequences of proteins in these tests, tags left out. Where a name states a change or a piece, a line headed by the entry shows the natural chain unless it says otherwise.
UniProt P08887: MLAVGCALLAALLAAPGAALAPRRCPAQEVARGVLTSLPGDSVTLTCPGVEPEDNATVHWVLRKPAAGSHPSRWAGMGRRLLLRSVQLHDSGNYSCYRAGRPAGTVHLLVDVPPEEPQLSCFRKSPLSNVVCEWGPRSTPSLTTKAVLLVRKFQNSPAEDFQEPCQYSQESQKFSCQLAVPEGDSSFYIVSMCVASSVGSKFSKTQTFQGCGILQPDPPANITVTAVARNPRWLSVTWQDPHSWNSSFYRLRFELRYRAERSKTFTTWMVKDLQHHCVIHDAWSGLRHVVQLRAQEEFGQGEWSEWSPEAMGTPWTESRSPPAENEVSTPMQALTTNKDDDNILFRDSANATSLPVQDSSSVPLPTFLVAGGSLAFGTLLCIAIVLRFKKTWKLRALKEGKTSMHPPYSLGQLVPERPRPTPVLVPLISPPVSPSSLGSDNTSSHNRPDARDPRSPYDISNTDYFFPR

T1: mouse IgA (mouse) (UniProt P01878)
T1 sequence (looked up): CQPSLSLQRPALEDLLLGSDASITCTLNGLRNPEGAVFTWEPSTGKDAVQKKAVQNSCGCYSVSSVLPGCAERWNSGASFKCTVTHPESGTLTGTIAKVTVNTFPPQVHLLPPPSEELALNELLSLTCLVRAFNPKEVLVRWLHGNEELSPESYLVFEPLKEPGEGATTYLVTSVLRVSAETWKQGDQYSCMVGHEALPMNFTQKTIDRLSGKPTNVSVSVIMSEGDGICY


Key:
mouse IgA (mouse) [1] = biological target: T1, mouse IgA (mouse); experiment: phage ELISA of the Fab-displaying clones of Example 3 (PF1 L chain)
mouse IgA (mouse) [2] = biological target: T1, mouse IgA (mouse); experiment: BLI, Octet RED384; antibody on Protein G biosensor, antigen in solution
mouse IgA (mouse) [3] = biological target: T1, mouse IgA (mouse); experiment: biolayer interferometry (Octet RED384), antibody on Protein G biosensor, mouse IgA in solution, 120 s association and 120 s dissociation [a]
[4] = biological target: soluble human IL-6R (human) (UniProt P08887); experiment: phage ELISA of the Fab-displaying clones of Example 3 (PF1 L chain)
[5] = biological target: soluble human IL-6R (human) (UniProt P08887); experiment: BLI, Octet RED384; antibody on Protein G biosensor, antigen in solution
[6] = biological target: soluble human IL-6R (human) (UniProt P08887); experiment: biolayer interferometry (Octet RED384), antibody on Protein G biosensor, soluble human IL-6R in solution, 120 s association and 120 s dissociation [d]

binding (mouse IgA (mouse) [1]) | binding (mouse IgA (mouse) [2]) | binding (mouse IgA (mouse) [3]) | binding [4] | binding [5] | binding [6] | Binder
binds | binds | binds | – | – | – | mIANH-2_27 (antibody, human IgG1, kappa, V domains shown) VH: EVQLVQSGAEVKKPGASVKVSCKASGYTFTGYYIHWVRQAPGQGLEWMGRINPNSGGTNYAQKFQGRVTMTRDTSISTAYMQLSRLRSDDTAVYYCARDNSGWGGFDAFDIWGQGTMVTVSS VL: DIQMTQSPSSLSASVGDSVTITCQASQDISSYLNWYQQKPGKAPELLIYYGSELHSGVPSRFSGSGSGTDFTFTISSLEAEDAATYYCGQGNRLPYTFGQGTKVEIER
– | – | – | binds | binds | binds | 6RNH-2_42 (antibody, human IgG1, kappa, V domains shown) VH: QVQLQESGPGLVKPSETLSLTCAVSGYSISDDHAWSWVRQPPGEGLEWIGYISYSGITNYNPSLKGRVTISRDTSKNQFSLKLSSVTAADTAAYYCARVLARITAMDYWGEGTLVTVSS VL: DIQMTQSPSSLSASVGDSVTITCQASQDISSYLNWYQQKPGKAPELLIYYGSELHSGVPSRFSGSGSGTDFTFTISSLEAEDAATYYCGQGNRLPYTFGQGTKVEIER
